Results on two molecules are retold here after doi:10.1101/2024.10.21.619451.

In assay [1] the target is T1, FL CLF (CURLY LEAF), yeast two-hybrid fusion (Arabidopsis thaliana) (UniProt P93831).
T1 sequence: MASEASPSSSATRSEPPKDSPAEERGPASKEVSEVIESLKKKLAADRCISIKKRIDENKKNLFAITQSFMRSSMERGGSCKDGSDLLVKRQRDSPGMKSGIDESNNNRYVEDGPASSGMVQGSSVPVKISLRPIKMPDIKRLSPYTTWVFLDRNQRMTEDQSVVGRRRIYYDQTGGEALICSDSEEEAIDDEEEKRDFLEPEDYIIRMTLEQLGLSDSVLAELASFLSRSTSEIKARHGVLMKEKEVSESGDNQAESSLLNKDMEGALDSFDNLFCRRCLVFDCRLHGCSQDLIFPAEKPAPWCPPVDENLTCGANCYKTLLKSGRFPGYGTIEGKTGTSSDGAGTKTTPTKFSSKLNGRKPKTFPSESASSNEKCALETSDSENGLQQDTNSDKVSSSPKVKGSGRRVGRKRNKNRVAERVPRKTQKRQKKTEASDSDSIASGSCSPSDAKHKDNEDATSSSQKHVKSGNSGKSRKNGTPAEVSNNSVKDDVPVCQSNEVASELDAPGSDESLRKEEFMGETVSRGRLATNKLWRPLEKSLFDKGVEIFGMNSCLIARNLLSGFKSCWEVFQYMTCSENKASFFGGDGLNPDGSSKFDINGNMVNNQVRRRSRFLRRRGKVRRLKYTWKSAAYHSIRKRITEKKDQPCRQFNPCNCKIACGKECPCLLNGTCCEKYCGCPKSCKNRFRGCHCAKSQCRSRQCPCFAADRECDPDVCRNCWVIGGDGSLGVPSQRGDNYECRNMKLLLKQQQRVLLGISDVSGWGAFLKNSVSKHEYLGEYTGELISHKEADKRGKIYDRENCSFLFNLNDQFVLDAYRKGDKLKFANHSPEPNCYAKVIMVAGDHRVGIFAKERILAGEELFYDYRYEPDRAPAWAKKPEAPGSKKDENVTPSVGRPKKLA
Nature of the assay: two-hybrid.

Assay [2] concerns the target full-length (FL) ULT1, yeast two-hybrid fusion (Arabidopsis thaliana) (UniProt Q8GZA8). Nature of the assay: two-hybrid.

No constants are given. Whether binding was seen depends on the method and setting. Some binding calls cover weakened binding; strength is not graded here. Sequences can lack the tags named with a protein.

B1: ULT1_(1-193), yeast two-hybrid fusion (domain or fragment, UniProt Q8GZA8 1-193)
chain: MANNEGEMQCGSMLFKQEELQEMSGVNVGGDYVEVMCGCTSHRYGDAVARLRVFPTGDLEITCECTPGCDEDKLTPAAFEKHSGRETARKWKNNVWVIIGGEKVPLSKTVLLKYYNESSKKCSRSNRSQGAKVCHRDEFVGCNDCGKERRFRLRSRDECRLHHNAMGDPNWKCSDFPYDKITCEEEEERGSRK
B1: the binding result in assay [1] is on record as “binds”.

B2: full-length (FL) ULT1, yeast two-hybrid fusion (protein, UniProt Q8GZA8 1-237)
chain: MANNEGEMQCGSMLFKQEELQEMSGVNVGGDYVEVMCGCTSHRYGDAVARLRVFPTGDLEITCECTPGCDEDKLTPAAFEKHSGRETARKWKNNVWVIIGGEKVPLSKTVLLKYYNESSKKCSRSNRSQGAKVCHRDEFVGCNDCGKERRFRLRSRDECRLHHNAMGDPNWKCSDFPYDKITCEEEEERGSRKVYRGCTRSPSCKGCTSCVCFGCELCRFSECTCQTCVDFTSNVKA
As to B2, the binding result in assay [2] and in assay [1] was “binds” each time.
